# Assay results reported in PubChem BioAssay AID2685 (National Center for Advancing Translational Sciences (NCATS), 2010).
# The other results are listed elsewhere or left out. Further columns of the screen follow, without active or inactive calls. Compounds called inactive in the main read-out are mostly missing here. The note in brackets gives the kind of curve behind each potency; many fits are weak.
# Assay: qHTS Assay for Lipid Storage Modulators in Drosophila S3 Cells;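 on cell number change: cells counted by Cell Tracker Red CMTPX staining in the red channel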
# Conditions: BODIPY lipid droplet fluorescence, 18-24 h; for cell number change: measured here: cell count max response, cells fed with added oleic acid
# Method in brief: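 Drosophila S3 cells loaded with oleic acid (400 uM, as added) and compounds at several concentrations; lipid droplets imaged by 488-nm laser-scanning cytometry, 500–530 nm intensity and object ratio to cell channel. Percent activity normalized to 20 uM Triacsin C.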
# [1] = measured here: lipid fluorescence (Fed channel) AC50, cells fed with added oleic acid
# [2] = measured here: cell number channel AC50, cells fed with added oleic acid
SMILES,cell number change [%],AC50 [1],AC50 [2]
CC1CC(C)CN(C(=O)c2ccc(Br)c(S(=O)(=O)N3CCOCC3)c2)C1 (stereo not drawn),14.3,"7.31 µM [rising, partial curve, poor fit]",–
Cc1ccc(OCCCn2c(=O)sc3ccccc32)cc1,-5.39,–,–
O=C1NN(c2ccccc2)C(=O)/C1=C/c1ccc(-c2cccc(C(=O)O)c2)o1,-8.33,"6.51 µM [rising, single point]",–
COc1cc(CN2CCCC(C(=O)c3ccccc3SC)C2)cc(OC)c1 (stereo not drawn),3.46,"4.61 µM [falling, single point]",–
O=S(=O)(NC1CC1)c1ccccc1,-3.3,"23.1 µM [falling, single point]",–
N#CC1=C(N)SC(N)=C(C#N)C1c1ccoc1,-90,"25.9 µM [falling, partial curve]","29.1 µM [falling, partial curve, poor fit]"
COc1ccc(CN(CC(=O)NC2CCCC2)C(=O)c2csnn2)cc1,-4.78,–,–
c1ccc2sc(N3CN(CCN4CCOCC4)CN(c4nc5ccccc5s4)C3)nc2c1,6.6,"25.9 µM [rising, single point]",–
CC(C)(CNC(=O)c1ccc(-c2cccc(C(F)(F)F)c2)o1)N1CCOCC1,–,"0.291 µM [rising, partial curve, poor fit]",–
CC12CCC(C(=O)N(NC(=O)c3ccccc3Cl)C1=O)C2(C)C (stereo not drawn),-6.21,–,–
CSC(=NC#N)N1CCN(c2ccccc2)CC1,-37.5,"3.66 µM [rising, single point]",–
O=C(CC12CC3CC(CC(Br)(C3)C1)C2)NC1=NCCS1,-33.9,"2.06 µM [falling, full curve]","0.00517 µM [falling, full curve, poor fit]"
O=C(NCCc1ccccc1)c1cccc([N+](=O)[O-])c1,45.3,–,"32.6 µM [rising, single point]"
CCC(=O)Nc1nnc(CSCc2ccc(F)cc2)s1,–,–,"0.082 µM [rising, full curve, poor fit]"
CC1CC(C)CN(c2oc(Cc3ccccc3)nc2C#N)C1 (stereo not drawn),-12.7,"6.51 µM [rising, single point]",–
NC(=O)CNC(=O)[C@@H]1CC2(CC(c3ccccc3)=NO2)CN1C(=O)c1ccc(Br)cc1 (stereo partly drawn),-7.58,–,–
COc1cccc(-c2nnc(SCCOc3ccc4c(C)cc(=O)oc4c3)o2)c1,7.56,"6.51 µM [rising, single point]",–

# Seven entries already listed, ordered by molecular weight, high to low.
SMILES,cell number change [%],AC50 [1],AC50 [2]
CC1CC(C)CN(C(=O)c2ccc(Br)c(S(=O)(=O)N3CCOCC3)c2)C1 (stereo not drawn),14.3,"7.31 µM [rising, partial curve, poor fit]",–
COc1cc(CN2CCCC(C(=O)c3ccccc3SC)C2)cc(OC)c1 (stereo not drawn),3.46,"4.61 µM [falling, single point]",–
COc1ccc(CN(CC(=O)NC2CCCC2)C(=O)c2csnn2)cc1,-4.78,–,–
O=C(CC12CC3CC(CC(Br)(C3)C1)C2)NC1=NCCS1,-33.9,"2.06 µM [falling, full curve]","0.00517 µM [falling, full curve, poor fit]"
CC12CCC(C(=O)N(NC(=O)c3ccccc3Cl)C1=O)C2(C)C (stereo not drawn),-6.21,–,–
CSC(=NC#N)N1CCN(c2ccccc2)CC1,-37.5,"3.66 µM [rising, single point]",–
N#CC1=C(N)SC(N)=C(C#N)C1c1ccoc1,-90,"25.9 µM [falling, partial curve]","29.1 µM [falling, partial curve, poor fit]"

# Additional structures

SMILES,cell number change [%],AC50 [1],AC50 [2]
C[C@H](N)C(=O)N1CCC(C(=O)N[C@@H](Cc2ccccc2)C(=O)Nc2ccc(F)cc2)CC1,11.1,"5.17 µM [rising, full curve, poor fit]",–
O=C(NCCc1c[nH]c2ccccc12)/C(=C\c1cccnc1)NC(=O)c1ccco1,6.43,"1.3 µM [rising, partial curve]",–
O=S(=O)(Nc1ccccn1)c1ccc(C2CCCCC2)cc1,-40.9,–,"29.1 µM [falling, single point]"
CCOC(=O)c1c(NC(=O)C2CCCCC2)sc2c1CCN(C(C)C)C2,-17.9,"16.4 µM [falling, single point]",–
Cc1ccc(S(=O)(=O)C2(S(=O)(=O)c3ccc(C)cc3)CCCC2)cc1,-33.4,–,"1.16 µM [falling, full curve, poor fit]"
Cc1ccc2nc(NCC(=O)NN)nc(-c3ccccc3)c2c1,2.39,–,–
O=C(N/N=C/c1cccc(Br)c1)c1ccc(Cn2cc(Br)cn2)o1,–,"13 µM [rising, partial curve]","0.58 µM [rising, single point]"
Cc1ccc(Sc2ccc(NC(=O)CCN3C(=O)NC4(CCCC4)C3=O)cc2)c(C)c1,14.4,–,"2.59 µM [falling, partial curve]"
CCN(CC(=O)Nc1c(F)cccc1F)C(=O)C1(c2ccccc2)CC1,29.9,"23.1 µM [rising, single point]",–
COC(=O)[C@H](C)NC(=O)Nc1ccccc1F,-16.7,"23.1 µM [falling, partial curve, poor fit]",–
COc1cccc(NC(=O)CN(C)C(=O)C2=COCCO2)c1,-22.5,–,–
NC1=NC(=O)C(Cc2cccc(Cl)c2)S1 (stereo not drawn),-49,–,"4.11 µM [falling, full curve]"
COc1ccc(C)cc1S(=O)(=O)N1CCC(C(=O)NCCc2ccccc2)CC1,–,"2.06 µM [rising, partial curve, poor fit]",–
c1ccc(CCc2nc(-c3ccccc3)no2)cc1,–,"29.1 µM [falling, single point]",–
CCOC(=O)C(C)NC(=O)C(NC(=O)C1CCC(CC)CC1)C(C)C (stereo not drawn),-33.9,–,"6.51 µM [falling, single point]"
Cc1c(CCC(=O)O)c(=O)oc2cc(OCc3ccc(Br)cc3)ccc12,10.8,"6.51 µM [rising, single point]",–
